Binding data for 1 molecule are collected here from publication PMC10315267.

The test concerns the target T1, LNK1 C-terminal fragment (yeast 2-/3-hybrid construct) (Arabidopsis thaliana) (UniProt A8MQN2).
T1 sequence: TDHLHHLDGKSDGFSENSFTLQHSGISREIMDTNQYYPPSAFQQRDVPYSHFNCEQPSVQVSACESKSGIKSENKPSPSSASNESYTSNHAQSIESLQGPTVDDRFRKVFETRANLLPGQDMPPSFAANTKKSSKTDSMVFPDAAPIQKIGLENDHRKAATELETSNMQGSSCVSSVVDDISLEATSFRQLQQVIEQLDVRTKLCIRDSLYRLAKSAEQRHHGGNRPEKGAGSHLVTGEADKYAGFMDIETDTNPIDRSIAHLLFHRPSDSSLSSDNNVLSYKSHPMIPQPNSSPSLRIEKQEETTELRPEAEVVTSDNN
The test is described as follows: two-hybrid; binary GAL4 Matchmaker Gold yeast 2-hybrid; bait in pGBKT7 (Y2H Gold), prey in pGADT7 (Y187), mated; growth on SD/-Leu-Trp-His.

Results are given in words; binding and its absence hold for the method and conditions named. Some binding calls cover weakened binding; strength is not graded here.

B1: RVE8 (yeast 2-/3-hybrid construct) (protein, UniProt Q8RWU3 1-298)
chain: MSSSPSRNPTNAEAPPPPPTSTDAVAEGSSKKVRKPYTITKSRESWTEEEHDKFLEALQLFDRDWKKIEDFVGSKTVIQIRSHAQKYFLKVQKNGTLAHVPPPRPKRKAAHPYPQKASKNAQMPLQVSTSFTTTRNGDMPGYASWDDASMLLNRVISPQHELATLRGAEADIGSKGLLNVSSPSTSGMGSSSRTVSGSEIVRKAKQPPVLHGVPDFAEVYNFIGSVFDPETRGHVEKLKEMDPINFETVLLLMRNLTVNLSNPDLESTRKVLLSYDNVTTELPSVVSLVKNSTSDKSA
In the case of B1, the binding result is on record as “binds”.
